Data reported in PubChem BioAssay AID1347075 (National Center for Advancing Translational Sciences (NCATS), 2019).
Among all 400,000 compounds or so, about 5,500 (1.4%) were called active. Inconclusive results, whose numbers are uncertain, are shown with a selection of clear calls. Calls follow the shape of the dose curve; as a rule, active = well fitted cell-killing curve with a large enough effect; inconclusive = small, poorly fitted or top-dose-only effect, or effect the other way; inactive = flat fitted curve, though single readings scatter. Where the call is inconclusive, the potency comes from a doubtful curve fit.

assay: qHTS assay for MDR1-selective chemotherapeutics: Primary screen using the parental adenocarcinoma cell KB-3-1; details: KB-3-1 viability, CellTiter-Glo ATP luminescence, 72 h; activity change, negative = cytotoxic: at 46.1 µM (top of the series); also: nearly all actives have a fitted effect of over 60% in size
From the text: A prime difficulty in effectively treating cancer is the development of cellular resistance to multiple structurally unrelated anticancer drugs, a phenomenon known as multidrug resistance (MDR). […] Numerous strategies to overcome P-gp-mediated MDR have been explored, including the design of drugs that evade recognition and efflux, and development of inhibitors to block efflux and restore drug accumulation. […] An alternative approach is to exploit resistance by identifying drugs that target MDR cells over the non-resistant parental cells from which they were selected. […] The development of MDR1-selective agents represents a new strategy for resolving multidrug resistance, as it remains a long-standing clinical challenge for cancer chemotherapy.
Our goal is to identify compounds that selectively kill P-gp-expressing MDR cells. We will identify MDR1-selective compounds by comparing toxicity of compounds in the screening library against parental, drug-naive (KB-3-1) adenocarcinoma cells as well as their drug-selected MDR sub-line (KB-V1). The differential toxicity of compounds against these two cell lines will be used to identify MDR1-selective compounds, whose cytotoxicity is potentiated, rather than diminished, by P-gp expression. This assay will be utilized to conduct a quantitative high-throughput screen (qHTS) in collaboration with the NIH Chemical Genomics Center to identify selective agents, and probe hits arising from the screen will be validated using secondary assays and characterized through a well-established follow-up research program. This screen was run against the entire NCGC library collection of about 400,000 compounds.
NIH Molecular Libraries Probe Production Network [MLPCN]
NIH Chemical Genomics Center [NCGC]
PI: Michael Gottesman PhD, National Cancer Institute, NIH
Briefly, 5 microL of media containing either KB-3-1 cells (columns 1-2, 4-48) are dispensed into Greiner white, treated solid-bottom 1536-well assay plates (media-only control is added to column 3). Compounds are then transferred via Kalypsys pin tool equipped with 1536-pin array (10 nL slotted pins, V&P Scientific, San Diego, CA). Following addition of compound, the plates are incubated at 37 degrees C for 72 hours. CellTiter-Glo (2.5 µL/well) is then added, and the plates are read in a ViewLux reader (Perkin-Elmer, clear luminescence filter, 1 second exposure, 1x binning) following a 10 minute incubation. All cells are dispensed in DMEM phenol-red free media containing 10% FBS.
Library plates were screened starting from the lowest and proceeding to the highest concentration. Vehicle-only plates, with DMSO being pin-transferred to columns 5-48, will be inserted uniformly at the beginning and the end of each library in order to monitor and record any shifts in the background, which can be affected by reagent dispensers or loss in enzyme activity over time. Screening data will be corrected, normalized, and concentration-effect relationships will be derived by using publicly-available NCGC, NCATS curve fitting algorithms (http://ncgc.nih.gov/pub/openhts).
% is scaled to controls: 0 for no effect and ±100 for the full control effect; potency is read from the fitted curve at half-maximal effect.

Structure (SMILES)	Potency	activity change, negative = cytotoxic
ClCCn1cnc2c(SCc3ccccc3Cl)ncnc21	inconclusive: 2.91 µM [cytotoxic, partial curve, poor fit]	
CC(=O)N1CCN(Cc2nc3cc(NC(=O)COc4cccc(C)c4)ccc3n2C)CC1		inactive: -5.32%
O=C(Cc1cccc(C(F)(F)F)c1)Nc1cc(S(=O)(=O)N2CCOCC2)ccc1N1CCCC1		inactive: 13.7%
COc1ccc(/C=C/C(=O)c2ccc(Cl)s2)cc1O	inconclusive: 29.1 µM [cytotoxic, single point]	
COc1ccc(Cl)cc1NC(=O)CN(C)C(=O)c1cc2c(s1)CCCC2	inconclusive: 23.1 µM [cytotoxic, single point]	
COc1ccc(NC(=O)c2ccc(NC(=O)CCS(=O)(=O)c3cccs3)cc2)cc1	inconclusive: 0.0366 µM [rising, full curve]	
CS(=O)(=O)N(CCC#N)Cc1ccc(C=O)o1	inconclusive: 29.1 µM [rising, single point]	
Cc1sc2ncnc(N3CCC(C(=O)Nc4ccc(Cl)c(Cl)c4)CC3)c2c1C	inconclusive: 29.1 µM [cytotoxic, single point]	
COc1ccccc1Cc1c(-c2ccc(C)cc2)nc2ccc(Cl)cn12		inactive: -3.71%
CC1=C(C(=O)Nc2ccc(C(=O)NC(C)c3ccccc3)cc2)SCCO1 (configuration not stated)	inconclusive: 18.4 µM [rising, single point]	
CC(C)C[C@@H](CN1CCCC1CN1C(=S)NC[C@@H]1Cc1ccc(O)cc1)N1C[C@H](Cc2ccc(O)cc2)N(CC2CCCCCC2)C1=S (some centres not stated)	inconclusive: 18.4 µM [cytotoxic, single point]	
CN(C)c1ccc(/C=C/N2C=CCc3c2ccc2ccccc32)cc1	active: 0.58 µM	
O=C1/C(=N\S(=O)(=O)c2cccs2)C([n+]2ccccc2)=C([O-])c2ccccc21	active: 6.51 µM	
CCc1c(C)[nH]n(-c2nc(-c3cccc([N+](=O)[O-])c3)cs2)c1=O	inconclusive: 23.1 µM [rising, single point]	
CCc1ccc(S(=O)(=O)c2cn(CC)c3cc(N4CCOCC4)c(F)cc3c2=O)cc1		inactive: -3.12%
COc1ccc(/C=C/c2nc(C#N)c(NCCN(C)C)o2)cc1OC		inactive: 8.9%
O=C1NC(c2ccccc2Cl)Nc2ccccc21 (configuration not stated)	inconclusive: 29.1 µM [cytotoxic, single point]	
CCOc1ccc(N/C=C/C(=O)c2ccc3ccccc3c2)c([N+](=O)[O-])c1	inconclusive: 18.4 µM [cytotoxic, single point]	
COc1cc(Cl)c(CC(=O)c2c[nH]c3ccccc23)cc1OC	active: 13 µM	
Cc1ccc(CNC(=O)C2CCN(S(=O)(=O)c3ccc4c(c3)CCCN4C(=O)C3CCC3)CC2)cc1	inconclusive: 13 µM [cytotoxic, partial curve]	
CCn1c(-c2ccccc2)c(C(=O)CCl)c2ccccc21		inactive: -1.77%
COc1cc(/C=C2\SC(=O)N(CCNC(=O)c3cnc(C)cn3)C2=O)cc(OC)c1OC	inconclusive: 18.4 µM [cytotoxic, single point]	
CCOc1ccc2c(c1)c(=O)c(S(=O)(=O)c1ccccc1)cn2CC(=O)Nc1ccccc1OC		inactive: 1.8%
COc1ccc(C(=O)Nc2ccc(N3CCCC3)cc2)cc1OC	inconclusive: 6.51 µM [cytotoxic, partial curve, poor fit]	

Another view of part of the listing above.

| Structure (SMILES) | Potency | activity change, negative = cytotoxic |
| --- | --- | --- |
| CN(C)c1ccc(/C=C/N2C=CCc3c2ccc2ccccc32)cc1 | active: 0.58 µM |  |
| O=C1/C(=N\S(=O)(=O)c2cccs2)C([n+]2ccccc2)=C([O-])c2ccccc21 | active: 6.51 µM |  |
| CCc1c(C)[nH]n(-c2nc(-c3cccc([N+](=O)[O-])c3)cs2)c1=O | inconclusive: 23.1 µM [rising, single point] |  |

Reprinted from the entries so far (2 entries):
Structure (SMILES)	Potency	activity change, negative = cytotoxic
CCc1ccc(S(=O)(=O)c2cn(CC)c3cc(N4CCOCC4)c(F)cc3c2=O)cc1		inactive: -3.12%
COc1ccc(/C=C/c2nc(C#N)c(NCCN(C)C)o2)cc1OC		inactive: 8.9%

More results follow.

Structure (SMILES)	Potency	activity change, negative = cytotoxic
COc1ccc(C(=O)N2CCN(Cc3ccc4c(c3)OCO4)CC2)cc1OC		inactive: -27%
Cc1c(C(=O)Nc2ccccc2)sc2ncn(CC(=O)N3CCCCC3)c(=O)c12	inconclusive: 29.1 µM [rising, single point]	
CC(=O)C(C(c1ccccc1)N1CCOCC1)N1CCOCC1 (configuration not stated)	inconclusive: 29.1 µM [rising, single point]	
Nc1ncnc2c1ncn2C1CCC(CO)C(O)C1 (configuration not stated)		inactive: 7.59%
Cc1ccc(S(=O)(=O)Cn2nnnc2C(C)N2CCN(C(=O)c3ccco3)CC2)cc1 (configuration not stated)		inactive: -10.7%
CC1=C/C(=N\NC(=S)NCc2ccccc2)CC1	inconclusive: 9.2 µM [cytotoxic, partial curve, poor fit]	
O=C(Nc1ccncc1)C1CCN(S(=O)(=O)c2ccc(Cl)c(C(F)(F)F)c2)CC1	active: 5.8 µM	
COc1ccc(CNC(=O)C(NC(C)=O)C(=O)Nc2ccc(C(C)C)cc2)cc1 (configuration not stated)		inactive: 7.45%
CC(=O)NC1CCCC1C#N (configuration not stated)		inconclusive: 33.3%
CCN(CCCNC(=O)c1ccc(N2CCCC2=O)cc1)c1cccc(C)c1	inconclusive: 29.1 µM [cytotoxic, single point]	
O=C(COC(=O)c1c2c(nc3ccccc13)CCCC2)Nc1ccc2c(c1)OCO2	inconclusive: 23.1 µM [cytotoxic, single point]	
COc1ccccc1NC(=O)c1ccc([N+](=O)[O-])o1	inconclusive: 29.1 µM [cytotoxic, single point]	
CCn1c(SC)nc2cc(S(=O)(=O)N3CCCCC3)ccc21	active: 20.6 µM	
CC(=O)Nc1cccc(OCCCNS(=O)(=O)c2ccc(C#N)cc2)c1		inactive: -7.36%
Cn1cnc2nc(Cl)nc(Cl)c21	active: 3.26 µM	
O=C(Nc1cccc(C(F)(F)F)c1)Nc1ccc(N2CCCC2)c(S(=O)(=O)Nc2ccccc2Cl)c1	active: 7.31 µM	
Cc1onc(-c2ccccc2Cl)c1C(=O)N(Cc1nc(-c2ccccc2)no1)C1CCCCC1	inconclusive: 29.1 µM [cytotoxic, single point]	
CCCCn1c(SCC(=O)N2c3ccccc3Sc3ccccc32)nc2c1c(=O)n(C)c(=O)n2C	active: 16.4 µM	
COc1cccc(CN2CCN(Cc3cc(OC)c(OC)c(OC)c3)CC2)c1OC		inactive: 11.4%
CN(C)c1ccc(-c2ccnc3c2CC(C)(C(=O)Nc2ccccc2)O3)cc1 (configuration not stated)		inactive: 0%
CC(C)C[C@H](NC(=O)N1CCn2c1nc1ccccc12)C(=O)NCc1ccc2c(c1)OCO2	inconclusive: 29.1 µM [cytotoxic, single point]	
C=CCN1C(=O)/C(=C\c2cccc(OC(=O)c3ccco3)c2)SC1=S	inconclusive: 32.6 µM [rising, single point]	
CN1CCN(c2cc3c(c4c2[nH]c2ccccc24)C(=O)CC(C)(C)C3)CC1	inconclusive: 29.1 µM [cytotoxic, single point]	
COc1ccccc1NC(=O)N1CCC(c2nc3cc(C)c(C)cc3[nH]2)CC1	active: 1.64 µM	

Structure (SMILES)	Potency	activity change, negative = cytotoxic
CCOC(=O)N1CCN(c2nc3ccccc3nc2C(C#N)C(=O)NCCc2ccccc2)CC1 (configuration not stated)	inconclusive: 18.4 µM [cytotoxic, single point]	
CCN(CC)C(=O)C(C)OC(=O)COc1ccc(Cl)cc1C (configuration not stated)	inconclusive: 29.1 µM [rising, single point]	
O=C(N/N=C/c1ccc(-c2cccc(C(F)(F)F)c2)o1)c1ccccc1O	inconclusive: 29.1 µM [cytotoxic, single point]	
N=c1n(CCN2CCCCC2)c2ccccc2n1CC(O)c1cccc(Br)c1 (configuration not stated)	inconclusive: 20.6 µM [cytotoxic, single point]	
CCOC(=O)c1cnc2ccc(OCC)cc2c1N1CCN(c2ccccc2OC)CC1	inconclusive: 16.4 µM [cytotoxic, single point]	
Cc1ncoc1C(=O)Nc1ccc2c(c1)OCCO2	inconclusive: 9.2 µM [cytotoxic, partial curve]	
C=CCN(CC=C)S(=O)(=O)c1ccc2nc(NC(=O)C3CCCO3)sc2c1 (configuration not stated)	inconclusive: 20.6 µM [cytotoxic, single point]	
CCSc1nnc(-c2cc(Br)ccc2NC(C)=O)c(=O)[nH]1	inconclusive: 1.84 µM [cytotoxic, full curve]	
COc1ccc(/C=N/Nc2nnc(Cc3ccc(OC)c(OC)c3)c(=O)[nH]2)cc1	inconclusive: 29.1 µM [cytotoxic, single point]	
COc1c(C)cc(S(=O)(=O)NCc2ccccn2)c(C)c1C		inactive: -1.68%
O=C(CSC1=Nc2ccccc2C2CC=NN12)Nc1ccc2c(c1)OCO2 (configuration not stated)		inactive: 10.3%
O=C(CCCOc1ccccc1)N1CCc2ccccc2C1		inactive: 20.3%
CCNC(=S)N(Cc1cc2c(C)ccc(C)c2[nH]c1=O)C1CCCC1	inconclusive: 16.4 µM [cytotoxic, single point]	
CCOc1ccc(CCNC(=O)c2ccc3ccccc3n2)cc1OCC	inconclusive: 13 µM [cytotoxic, partial curve]	
NC1=NC2(CCCCC2)N=C(Nc2ccc(Br)cc2)N1	active: 23.1 µM	
CCN1C(=O)/C(=C/c2ccc(C)o2)N(C)C1=S		inactive: -13.5%
O=C1c2ccccc2NC(c2ccc3c(c2)OCO3)N1O (configuration not stated)		inactive: -2.18%
Cc1ccc(N(Cc2cccs2)C(=O)COc2cccc(C)c2)cc1	inconclusive: 29.1 µM [cytotoxic, single point]	
Cc1cccc2c1NC(=O)C21N2CCCC2C(C(=O)c2ccc3ccccc3c2)C12C(=O)Nc1ccccc12 (configuration not stated)	inconclusive: 29.1 µM [cytotoxic, single point]	
Cc1onc(-c2ccccc2Cl)c1C(=O)Nc1ccccc1		inactive: -14.9%
Cc1cc(N2CCCC2)ccc1NC(=O)COc1cccc(C(F)(F)F)c1		inactive: -25.8%
CCCCCCCCN1[C@@H](CC(=O)OCC)c2cc(F)ccc2S1(=O)=O	inconclusive: 16.4 µM [cytotoxic, single point]	
O=C(Nc1ccn(Cc2ccccc2)n1)c1cccc(Cn2cc([N+](=O)[O-])cn2)c1	inconclusive: 11.6 µM [cytotoxic, single point]	
COC1=Nc2ccccc2/C=C\c2ccccc21	inconclusive: 18.4 µM [rising, single point]	
